From article PMC5053661 come the findings set out here.

This series addresses p53 (UniProt P04637). The series is described as follows: competition with a labelled probe. Conditions: excess unlabeled oligo abolished the N1 shift; EMSA: 100 ng recombinant p53, 100 nM annealed biotin probe; binding buffer, pH and temperature not given (ref 63); commercial protein. Background: Mobility shift assays separate free from complexed probe on a gel.

The exact form of at least one protein or probe is not confirmed.

Consider “TGACTGTCTGCCCATCTACCTGGCCCTACAT (double strand) [unlabeled hBD3 -1339 competitor]”, for which the binding result is “binds”.
